The list shows a part of the results. Repeats are few or missing, and single values can be far off.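 Cells were imaged in 1,536-well plates, and nuclei stained with an antibody against cleaved PARP were counted against all DNA-stained nuclei to give the apoptosis fraction. Screening doses were chosen to leave most cells alive, and resting and induced cleaved-PARP levels differ strongly between cell lines.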
How the values were obtained:
Experiment in all cases: cleaved PARP positive nuclei fraction relative to DMSO control; melanoma cells; higher = more apoptosis
Details in all cases: library dose: low library concentration; 72 h
CBRC034 = system: CBRC034 (line from a melanoma biopsy)
COLO792 = system: COLO792
COLO800 = system: COLO800
COLO829 = system: COLO829
G361 = system: G361
IPC-298 = system: IPC-298
IST-MEL1 = system: IST-MEL1
LB2518-MEL = system: LB2518-MEL
LOXIMVI = system: LOXIMVI

| SMILES | cleaved PARP positive nuclei fraction (CBRC034) [%] | cleaved PARP positive nuclei fraction (COLO792) [%] | cleaved PARP positive nuclei fraction (COLO800) [%] | cleaved PARP positive nuclei fraction (COLO829) [%] | cleaved PARP positive nuclei fraction (G361) [%] | cleaved PARP positive nuclei fraction (IPC-298) [%] | cleaved PARP positive nuclei fraction (IST-MEL1) [%] | cleaved PARP positive nuclei fraction (LB2518-MEL) [%] | cleaved PARP positive nuclei fraction (LOXIMVI) [%] |
| --- | --- | --- | --- | --- | --- | --- | --- | --- | --- |
| O=C(O)c1ccc(-c2c[nH]c3ncc(-c4ccccc4)cc23)cc1C1CCCC1 + CCN(CC)CCCCNc1ncc2cc(-c3cc(OC)cc(OC)c3)c(NC(=O)NC(C)(C)C)nc2n1 [PD173074] (first compound 0.16 µM, partner dose 0.1 µM) | 152 | 110 | 119 | 184 | 54.1 | 240 | 64 | 59.5 | 84.6 |
| N#Cc1c(O)c2c(-c3ccc(-c4ccccc4O)cc3)csc2[nH]c1=O + Oc1cc(-c2nc(-c3ccccc3)[nH]c2-c2ccncc2)ccc1Cl [L779450] (first compound 2 µM, partner dose 0.2 µM) | 40.7 | 59.3 | 112 | 82.5 | 68.1 | 153 | 180 | 172 | 116 |
| Oc1nc(-c2ccc(C(F)(F)F)cc2)nc2c1CSCC2 + Cn1cc(/C=C2\C(=O)Nc3cccnc32)c2ccccc21 [GW441756] (first compound 2 µM, partner dose 0.4 µM) | 94.3 | 240 | 59.9 | 95 | 74 | 62.2 | 83.2 | 91.5 | 102 |
| NCC(=O)Nc1ccc(-n2nc(C(F)(F)F)cc2-c2ccc3c(ccc4ccccc43)c2)cc1 + COc1ccc2c(c1)CCC1C2CCC2(C)C(NCCCCCCN3C(=O)C=CC3=O)CCC12 [U73122] (first compound 1 µM, partner dose 0.4 µM) | 85.3 | 128 | 74.1 | 137 | 111 | 110 | 132 | 74.3 | 68.8 |
| COc1ccc(COc2ccc(Cc3cnc(N)nc3N)cc2OC)cc1 + O=C(O)C(=O)Nc1sc2c(c1C(=O)O)CCNC2 [TCS401] (first compound 1 µM, partner dose 1.66667 µM) | 253 | 100 | 79.4 | 96.9 | 90.2 | 41.6 | 91 | 164 | 69.2 |
| Cc1cc([N+](=O)[O-])ccc1NS(=O)(=O)c1cc(Cl)ccc1Cl + CCCCCCCCCCCC1=C(O)C(=O)C=C(O)C1=O [Embelin] (first compound 1 µM, partner dose 1.2 µM) | 609 | 99.2 | 52.3 | 166 | 114 | 28.6 | 44.5 | 56.7 | 33.2 |
| CN(NC(=O)CC(=O)NN(C)C(=S)c1ccccc1)C(=S)c1ccccc1 + CCCCCCCCCCCC1=C(O)C(=O)C=C(O)C1=O [Embelin] (first compound 0.006 µM, partner dose 1.2 µM) | 58 | 173 | 302 | 42.3 | 56.2 | 46.3 | 142 | 98.9 | 66.2 |
| CCc1ccc(CCOc2ccc(CC3SC(=O)NC3=O)cc2)nc1 (configuration not stated) [pioglitazone] + N#Cc1c(O)c2c(-c3ccc(-c4ccccc4O)cc3)csc2[nH]c1=O [A769662] (first compound 2 µM, partner dose 2 µM) | 141 | 155 | 128 | 66.6 | 29.7 | 40 | 54.8 | 83.3 | 82.2 |
| CN(C)S(=O)(=O)c1ccc2c(c1)/C(=C/c1cc3c([nH]1)CCCC3)C(=O)N2 + Cc1cc([N+](=O)[O-])ccc1NS(=O)(=O)c1cc(Cl)ccc1Cl [FH535] (first compound 0.4 µM, partner dose 1 µM) | 627 | 81.7 | 94.9 | 70.9 | 124 | 42.4 | 215 | 282 | 61.2 |
| O=C(Nc1ccccc1)c1cc([N+](=O)[O-])ccc1Cl + CC(C)CCN1c2nc(Nc3cc(F)c(O)c(F)c3)ncc2N(C)C(=O)C1C [BID1870] (first compound 2 µM, partner dose 0.2 µM) | 301 | 114 | 198 | 87.1 | 170 | 138 | 191 | 91.4 | 48.3 |
| O=S(=O)(c1ccccc1)N(CC(F)(F)F)c1ccc(C(O)(C(F)(F)F)C(F)(F)F)cc1 + Oc1nc(-c2ccc(C(F)(F)F)cc2)nc2c1CSCC2 [XAV939] (first compound 1.4 µM, partner dose 2 µM) | 39.8 | 153 | 184 | 92.2 | 148 | 44.8 | 88.9 | 94.1 | 61.6 |
| O=C1NC(=O)/C(=C/c2ccc(-c3ccc(F)cc3O)o2)S1 + Oc1nc(-c2ccc(C(F)(F)F)cc2)nc2c1CSCC2 [XAV939] (first compound 1 µM, partner dose 2 µM) | 46.1 | 137 | 137 | 77.6 | 57 | 87.7 | 32.8 | 175 | 71 |
| COc1cc2ncnc(Nc3ccc(Oc4ccccc4)cc3)c2cc1OC + Oc1nc(-c2ccc(C(F)(F)F)cc2)nc2c1CSCC2 [XAV939] (first compound 2 µM, partner dose 2 µM) | 95.5 | 205 | 113 | 35.9 | 56.2 | 118 | 54 | 138 | 191 |

Part of the list above, limited to cleaved PARP positive nuclei fraction (COLO829) [%], cleaved PARP positive nuclei fraction (COLO792) [%] and cleaved PARP positive nuclei fraction (G361) [%]:
SMILES	cleaved PARP positive nuclei fraction (COLO829) [%]	cleaved PARP positive nuclei fraction (COLO792) [%]	cleaved PARP positive nuclei fraction (G361) [%]
N#Cc1c(O)c2c(-c3ccc(-c4ccccc4O)cc3)csc2[nH]c1=O + Oc1cc(-c2nc(-c3ccccc3)[nH]c2-c2ccncc2)ccc1Cl [L779450] (first compound 2 µM, partner dose 0.2 µM)	82.5	59.3	68.1
Oc1nc(-c2ccc(C(F)(F)F)cc2)nc2c1CSCC2 + Cn1cc(/C=C2\C(=O)Nc3cccnc32)c2ccccc21 [GW441756] (first compound 2 µM, partner dose 0.4 µM)	95	240	74

Reference: the supplement of paper PMC4604168 (melanoma cell lines)
